These are yes or no findings as the source states them, for the method shown. In cells and extracts the contact can be indirect. Some entries that bind do so weakly or less than the wild type. Where a sequence is shown, tags or fusion partners need not be part of it.
Biological target: T1, Flag-tagged GFP::NMAD-1 fusion protein (gfp::3xflag::nmad-1 transgene) (C. elegans) (UniProt Q8MNT9)
T1 sequence: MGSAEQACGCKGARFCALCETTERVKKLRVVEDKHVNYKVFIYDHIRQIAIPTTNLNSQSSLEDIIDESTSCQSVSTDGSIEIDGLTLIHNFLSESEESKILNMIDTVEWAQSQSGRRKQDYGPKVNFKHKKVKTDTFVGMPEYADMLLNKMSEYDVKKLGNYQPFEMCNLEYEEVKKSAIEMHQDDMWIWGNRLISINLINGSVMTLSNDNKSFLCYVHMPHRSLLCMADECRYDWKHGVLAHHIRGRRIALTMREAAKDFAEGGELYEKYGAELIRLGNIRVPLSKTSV
Test: co-IP; IP from lysate of double transgenic worms in IP-200 buffer (20 mM Tris-HCl pH 7.5, 50 mM KCl), IgG or GFP antibody; blots probed with GFP or Flag antibodies

The chains behind the UniProt entries cited, without tags or fusion partners.
UniProt Q23670: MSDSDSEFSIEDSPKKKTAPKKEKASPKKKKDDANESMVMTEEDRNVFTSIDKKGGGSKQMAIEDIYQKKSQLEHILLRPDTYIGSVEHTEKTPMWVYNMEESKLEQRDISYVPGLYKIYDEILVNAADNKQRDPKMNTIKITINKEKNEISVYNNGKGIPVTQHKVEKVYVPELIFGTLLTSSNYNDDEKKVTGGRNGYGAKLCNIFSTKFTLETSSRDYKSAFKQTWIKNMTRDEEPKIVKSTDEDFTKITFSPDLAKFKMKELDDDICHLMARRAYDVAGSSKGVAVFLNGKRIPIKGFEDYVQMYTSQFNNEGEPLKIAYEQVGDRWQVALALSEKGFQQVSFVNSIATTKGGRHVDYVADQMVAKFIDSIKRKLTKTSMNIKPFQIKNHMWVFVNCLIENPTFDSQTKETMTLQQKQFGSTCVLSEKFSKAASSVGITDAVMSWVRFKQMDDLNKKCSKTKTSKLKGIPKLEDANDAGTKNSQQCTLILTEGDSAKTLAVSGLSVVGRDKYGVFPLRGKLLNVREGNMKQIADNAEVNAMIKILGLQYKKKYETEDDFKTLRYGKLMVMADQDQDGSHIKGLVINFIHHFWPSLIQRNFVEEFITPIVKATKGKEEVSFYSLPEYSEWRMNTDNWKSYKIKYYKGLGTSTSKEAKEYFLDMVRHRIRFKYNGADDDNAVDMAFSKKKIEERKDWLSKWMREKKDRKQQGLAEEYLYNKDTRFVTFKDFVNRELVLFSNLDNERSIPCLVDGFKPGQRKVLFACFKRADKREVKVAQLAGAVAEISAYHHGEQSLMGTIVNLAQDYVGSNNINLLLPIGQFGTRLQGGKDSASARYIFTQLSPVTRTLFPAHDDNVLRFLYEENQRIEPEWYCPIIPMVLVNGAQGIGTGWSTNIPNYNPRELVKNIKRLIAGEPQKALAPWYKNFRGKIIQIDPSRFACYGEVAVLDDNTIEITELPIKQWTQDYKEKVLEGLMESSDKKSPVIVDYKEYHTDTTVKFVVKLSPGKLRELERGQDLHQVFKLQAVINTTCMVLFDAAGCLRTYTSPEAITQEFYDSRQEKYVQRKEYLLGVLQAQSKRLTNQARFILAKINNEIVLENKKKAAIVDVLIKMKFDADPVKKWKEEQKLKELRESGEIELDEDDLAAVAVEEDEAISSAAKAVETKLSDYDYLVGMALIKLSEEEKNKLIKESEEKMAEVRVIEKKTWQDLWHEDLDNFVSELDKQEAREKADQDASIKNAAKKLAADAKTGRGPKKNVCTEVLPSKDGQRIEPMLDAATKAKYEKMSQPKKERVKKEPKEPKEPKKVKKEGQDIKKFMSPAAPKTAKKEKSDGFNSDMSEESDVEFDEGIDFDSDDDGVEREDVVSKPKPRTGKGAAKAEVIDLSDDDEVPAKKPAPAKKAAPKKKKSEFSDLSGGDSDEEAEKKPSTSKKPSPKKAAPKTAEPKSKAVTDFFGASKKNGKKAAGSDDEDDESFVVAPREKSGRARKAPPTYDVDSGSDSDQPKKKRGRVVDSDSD

## Flag-tagged topoisomerase II (TOP-2), top-2::3xflag(av64) transgene (from UniProt Q23670 1-1520) (enzyme)
  binding: binds

Reference: publication PMC6638966, “The demethylase NMAD-1 regulates DNA replication and repair in the Caenorhabditis elegans germline” (PLoS Genetics, 2019)
